Drawing on publication PMC10341432, this text covers binding for three substances.

Amino acid sequences for entries named in this document (tags omitted).
UniProt P08183: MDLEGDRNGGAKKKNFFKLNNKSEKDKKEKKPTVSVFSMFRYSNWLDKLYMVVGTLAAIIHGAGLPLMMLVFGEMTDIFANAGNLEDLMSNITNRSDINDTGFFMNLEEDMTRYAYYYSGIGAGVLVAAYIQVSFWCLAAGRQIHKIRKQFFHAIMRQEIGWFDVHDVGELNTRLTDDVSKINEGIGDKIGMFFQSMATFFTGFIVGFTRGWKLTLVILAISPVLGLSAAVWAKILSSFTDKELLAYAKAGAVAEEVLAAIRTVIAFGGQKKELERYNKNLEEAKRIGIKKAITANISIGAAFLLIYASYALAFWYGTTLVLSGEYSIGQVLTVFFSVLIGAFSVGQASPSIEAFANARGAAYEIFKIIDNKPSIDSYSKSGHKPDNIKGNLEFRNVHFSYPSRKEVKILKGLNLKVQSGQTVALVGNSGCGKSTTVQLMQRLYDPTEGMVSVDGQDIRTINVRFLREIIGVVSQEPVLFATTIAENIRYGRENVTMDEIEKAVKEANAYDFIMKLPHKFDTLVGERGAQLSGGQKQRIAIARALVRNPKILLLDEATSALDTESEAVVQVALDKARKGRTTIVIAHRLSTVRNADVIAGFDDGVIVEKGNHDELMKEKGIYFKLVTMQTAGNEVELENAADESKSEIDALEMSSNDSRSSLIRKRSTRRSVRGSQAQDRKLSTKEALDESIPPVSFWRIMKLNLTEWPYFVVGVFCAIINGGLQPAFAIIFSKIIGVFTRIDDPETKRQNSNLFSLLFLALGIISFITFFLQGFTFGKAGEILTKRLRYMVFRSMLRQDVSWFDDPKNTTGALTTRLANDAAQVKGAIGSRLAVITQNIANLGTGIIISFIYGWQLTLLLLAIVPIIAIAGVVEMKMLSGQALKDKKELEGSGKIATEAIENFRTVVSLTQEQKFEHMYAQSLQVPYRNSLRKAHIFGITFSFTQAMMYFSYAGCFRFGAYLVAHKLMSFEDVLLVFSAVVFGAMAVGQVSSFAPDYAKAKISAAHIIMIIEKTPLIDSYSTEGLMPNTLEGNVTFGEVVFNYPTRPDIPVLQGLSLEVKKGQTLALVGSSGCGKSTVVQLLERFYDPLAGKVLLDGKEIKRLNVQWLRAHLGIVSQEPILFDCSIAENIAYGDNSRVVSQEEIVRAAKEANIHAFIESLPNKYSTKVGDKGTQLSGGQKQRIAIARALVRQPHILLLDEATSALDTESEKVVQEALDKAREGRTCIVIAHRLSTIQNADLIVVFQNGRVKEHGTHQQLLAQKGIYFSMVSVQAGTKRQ
UniProt Q9CQJ4: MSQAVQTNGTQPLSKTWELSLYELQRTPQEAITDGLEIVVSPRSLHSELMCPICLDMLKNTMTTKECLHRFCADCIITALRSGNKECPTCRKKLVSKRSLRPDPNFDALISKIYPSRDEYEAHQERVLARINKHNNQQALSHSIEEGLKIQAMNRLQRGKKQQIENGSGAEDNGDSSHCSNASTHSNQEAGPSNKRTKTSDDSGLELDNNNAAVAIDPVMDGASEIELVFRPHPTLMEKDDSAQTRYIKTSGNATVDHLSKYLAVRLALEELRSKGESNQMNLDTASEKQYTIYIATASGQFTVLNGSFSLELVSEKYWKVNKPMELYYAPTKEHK
UniProt P46935: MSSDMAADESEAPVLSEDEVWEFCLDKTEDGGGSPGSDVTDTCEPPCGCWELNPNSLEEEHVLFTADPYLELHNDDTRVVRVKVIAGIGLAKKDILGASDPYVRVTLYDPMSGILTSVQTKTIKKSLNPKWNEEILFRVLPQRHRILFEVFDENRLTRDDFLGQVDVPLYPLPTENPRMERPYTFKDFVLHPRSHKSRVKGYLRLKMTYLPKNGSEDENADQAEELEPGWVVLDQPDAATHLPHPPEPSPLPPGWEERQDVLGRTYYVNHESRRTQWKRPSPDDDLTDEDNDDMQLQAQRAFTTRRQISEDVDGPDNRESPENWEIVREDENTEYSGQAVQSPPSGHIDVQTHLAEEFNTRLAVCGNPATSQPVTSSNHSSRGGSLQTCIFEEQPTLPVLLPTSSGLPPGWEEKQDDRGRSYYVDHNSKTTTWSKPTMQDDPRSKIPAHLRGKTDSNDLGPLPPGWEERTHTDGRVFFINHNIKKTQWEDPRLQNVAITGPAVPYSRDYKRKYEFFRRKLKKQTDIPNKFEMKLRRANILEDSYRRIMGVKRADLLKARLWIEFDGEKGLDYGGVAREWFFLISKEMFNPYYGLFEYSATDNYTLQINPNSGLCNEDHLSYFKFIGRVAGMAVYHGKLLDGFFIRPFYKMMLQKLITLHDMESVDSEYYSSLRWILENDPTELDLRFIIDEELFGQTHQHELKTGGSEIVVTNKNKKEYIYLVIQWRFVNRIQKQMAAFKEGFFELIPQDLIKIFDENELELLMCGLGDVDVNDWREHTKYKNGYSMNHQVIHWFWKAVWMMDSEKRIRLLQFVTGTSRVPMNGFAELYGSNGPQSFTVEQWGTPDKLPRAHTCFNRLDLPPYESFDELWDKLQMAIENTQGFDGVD

Results are given in words; binding and its absence hold for the method and conditions named. In cells and extracts the contact can be indirect. A yes stands for co-enrichment or nearness to the bait. Other partners may have been found.

The target in the test is P-glycoprotein (human), as expressed on NIH 3T3 MDR1 cells (human) (UniProt P08183). The test can be described thus: affinity purification with mass spectrometry; Pgp enriched with 15D3 or UIC2 mAb on Protein G magnetic beads from membrane preparations of NIH 3T3 MDR1 cells; nine washes with RIPA buffer; cross-linked with DSSO or BS2Gd0/d4 on living cells before, or with DSSO on-bead after immunoprecipitation; on-bead trypsin digestion, LC-MS/MS; proteins found with Pgp.
As for “RING finger protein 2 (from UniProt Q9CQJ4 1-336) (enzyme)”, the binding result is on record as “binds”.
The result for AHNAK (from UniProt E9Q616 1-5656) reads “binds”.
Consider “NEDD4 (from UniProt P46935 1-887) (enzyme)”, for which the binding entry was “binds”.
